PubChem BioAssay AID1159584 | Peter MacCallum Cancer Centre | 2016
The deposit covers about 18,000 reagents; this is a random part of them. Further read-outs or replicates are left out here. No sequences are given here. Not given: the amount of reagent, the time to read-out.

- Aim: 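Genes that CDH1-null MCF10A cells selectively depend on to survive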 (primary screen)
- Cells: human MCF10A breast epithelial cells, parental and CDH1-null
- Reagent: siRNA against human genes
- Detection: 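Cell viability by CellTiter-Glo ATP luminescence, each line scaled to the mean of mock wells across plates, then CDH1-null over parental ratio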
- Reading the numbers: CDH1-null / parental viability ratio: higher = CDH1-null cells survive relatively better than parental; CDH1-null viability vs mock: higher = more viable CDH1-null cells

target,CDH1-null / parental viability ratio,CDH1-null viability vs mock (fraction of mock)
BCL2,0.89,0.79
INTU,1.05,0.89
CTRB1,1.41,0.41
FLACC1,1.15,0.62
KRTAP13-3,1.22,0.94
KLK7,1.33,0.96
CCNG2,1.02,1.02
DLG2,0.82,0.9
PJA2,0.98,0.86
KIAA0586,0.88,0.46
CRIM1,1.04,0.85
MAT1A,0.95,0.99
CCDC62,0.84,0.98
CTAG1B,0.9,0.54
ZNF677,0.84,0.84
BTBD3,1.13,0.93
BUB3,0.78,0.43
SNRPD2,1.3,0.3
ANGPT4,1.22,0.66
MCM2,1.02,0.88
TCL1A,1.02,0.59
CSTL1,1.14,1
OR51Q1,1.15,0.62
SOCS7,0.98,0.8
KDM4D,1.16,0.92
OR4F15,1.26,1.08
UBQLN2,1.21,0.92
GNRHR,1.16,0.89
RDH14,0.71,0.5
MYCBP2,1,0.95
CCDC73,1.26,0.86
TNFRSF6B,1.3,1.07
AREL1,1.1,0.97
SVEP1,0.84,0.77
CCDC47,0.9,0.62
MDGA2,0.73,0.62
KRT33A,1.15,0.6
RIGI,1.03,0.89
FOXA3,1,1.04
GALR2,0.74,0.78
TMEM132D,1,0.82
TMEM120B,1.15,0.9
ZEB2,1.15,0.83
PACSIN1,0.84,0.73
TSEN54,0.91,0.6
GTF2I,0.85,0.82

4 neighbouring entries already listed:
target,CDH1-null / parental viability ratio,CDH1-null viability vs mock (fraction of mock)
GNRHR,1.16,0.89
RDH14,0.71,0.5
MYCBP2,1,0.95
CCDC73,1.26,0.86
